# Residue numbers refer to the chain shown, from its start. Names and notes keep the numbering of the source. These are yes or no findings as the source states them, for the method shown. For some of these results: Binding seen in cells or lysates may run through a third protein. Some entries that bind do so weakly or less than the wild type. Tags and fused reporters may be left off the sequences shown.
# T1: TPA-tagged Pex14p (Pex14p^TPA) (S. cerevisiae) (UniProt P53112)
# T1 sequence: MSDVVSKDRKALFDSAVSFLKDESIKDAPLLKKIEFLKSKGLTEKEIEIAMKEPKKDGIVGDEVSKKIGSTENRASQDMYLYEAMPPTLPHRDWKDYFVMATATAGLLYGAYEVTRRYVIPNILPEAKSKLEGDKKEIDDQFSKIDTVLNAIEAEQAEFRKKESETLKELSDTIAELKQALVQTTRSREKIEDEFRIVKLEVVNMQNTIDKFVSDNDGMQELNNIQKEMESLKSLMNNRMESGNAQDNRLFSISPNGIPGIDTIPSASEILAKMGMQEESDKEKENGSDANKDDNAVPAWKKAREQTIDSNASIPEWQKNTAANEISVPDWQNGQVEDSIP
# T2: Pcs60p nonapeptide, FITC-… (S. cerevisiae)
# T2 sequence (peptide, FITC on the N-terminus): YKSSRNKSKL
# T3: TPA-tagged Pex5p wildtype (Pex5p^TPA) (S. cerevisiae) (UniProt P35056)
# T3 sequence: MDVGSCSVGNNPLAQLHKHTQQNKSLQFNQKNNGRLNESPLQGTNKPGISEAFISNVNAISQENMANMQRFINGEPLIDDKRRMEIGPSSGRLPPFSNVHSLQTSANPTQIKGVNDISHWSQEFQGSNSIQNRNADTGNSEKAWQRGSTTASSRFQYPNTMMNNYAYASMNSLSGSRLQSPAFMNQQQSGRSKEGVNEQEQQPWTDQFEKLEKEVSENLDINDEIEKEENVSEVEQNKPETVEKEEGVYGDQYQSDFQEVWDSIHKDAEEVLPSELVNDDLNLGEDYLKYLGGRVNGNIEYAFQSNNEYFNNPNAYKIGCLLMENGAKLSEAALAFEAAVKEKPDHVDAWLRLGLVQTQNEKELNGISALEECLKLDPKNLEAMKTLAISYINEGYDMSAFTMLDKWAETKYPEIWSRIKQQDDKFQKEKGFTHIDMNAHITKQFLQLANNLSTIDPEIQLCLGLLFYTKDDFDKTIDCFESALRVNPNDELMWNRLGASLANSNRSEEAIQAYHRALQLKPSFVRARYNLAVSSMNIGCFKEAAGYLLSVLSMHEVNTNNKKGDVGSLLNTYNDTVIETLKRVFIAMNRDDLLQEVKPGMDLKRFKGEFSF
# T4: TPA-tagged Pex5p-S507/523D (Pex5p^2D) (S. cerevisiae) (UniProt P35056)
# T4 sequence: T3 sequence with S507D, S523D
# T5: TPA-tagged Pex5p-S507/523A (Pex5p^2A) (S. cerevisiae) (UniProt P35056)
# T5 sequence: T3 sequence with S507A, S523A
# B1: Pex5p wildtype, recombinant His6-tagged (HisPex5p) (natural protein, S. cerevisiae, UniProt P35056 1-612, looked up)
# chain: T3 sequence
# notes: Pex5p, PTS1 receptor of Saccharomyces cerevisiae, UniProtKB P35056, full length; No cleavage of the His tag is described; the native MS mass of the monomer is printed as 71.459 kDa; also called Pex5p^WT; source: E. coli BL21 RIL (DE3), purified (Ni-NTA, MonoQ anion exchange, SEC)
# B2: Pex5p-S507/523D, recombinant His6-tagged phospho-mimicking mutant (natural protein, S. cerevisiae, UniProt P35056 1-612, looked up)
# chain: T3 sequence with S507D, S523D
# notes: Pex5p, PTS1 receptor of Saccharomyces cerevisiae, UniProtKB P35056, full length, with S507D and S523D; No cleavage of the His tag is described; the native MS mass of the monomer is printed as 71.515 kDa; also called Pex5p^2D; Pex5p-S507D/523D; source: E. coli BL21 RIL (DE3), purified (Ni-NTA, MonoQ anion exchange, SEC)
# B3: Pex14p (protein, UniProt P53112 1-341)
# chain: T1 sequence
# B4: Pex13p (protein, UniProt P80667 1-386)
# chain: MSSTAVPRPKPWETSASLEEPQRNAQSLSAMMTSNQQDSRPTEESNNSNSASESAPEVLPRPAALNSSGTYGESNTIPGIYGNSNYGIPYDNNPYSMNSIYGNSIGRYGYGGSYYGNNYGSFYGGGYGAGAGYGMNNGSGLGESTKATFQLIESLIGAVTGFAQMLESTYMATHNSFFTMISVAEQFGNLKEMLGSFFGIFAIMKFLKKILYRATKGRLGIPPKNFAESEGSKNKLIEDFQKFNDSGTINSNEKATRRKISWKPLLFFLMAVFGFPYLLNKFITKLQTSGTIRASQGNGSEPIDPSKLEFARALYDFVPENPEMEVALKKGDLMAILSKKDPLGRDSDWWKVRTKNGNIGYIPYNYIEIIKRRKKIEHVDDETRTH
# B5: Pex17p (protein, UniProt P40155 1-199)
# chain: MTSINSFPRNIDWPSNIGIKKIEGTNPTVNAIKGLLYNGGSIYAFLYFVIAMFVEPTLQKQYQQRNDFSLFVLLRLRRIIAQLQKRLVMTPVSSLGFNEQNNFVERSTQTSDDNIIREDNSHWAEMIYQLQNMKQELQYFNRSSGQPSESIDDFVFQIKMVTDQVELTDRSRAFSNKSRNIIQGIREIKGWFVNGQVPR
# B6: Pex5p-S507/523A in cells expressing TPA-tagged Pex14p (protein, UniProt P35056 1-612)
# chain: T3 sequence with S507A, S523A
# B7: Pex5p-S507/523D in cells expressing TPA-tagged Pex14p (protein, UniProt P35056 1-612)
# chain: T3 sequence with S507D, S523D
# How the values were obtained:
# [1] = biological target: T1, TPA-tagged Pex14p (Pex14p^TPA) (S. cerevisiae); assay: co-IP; reverse purification: TPA-tagged Pex14p as bait on IgG Sepharose from crude membrane fractions solubilized with 1% digitonin, eluted with TEV protease; immunoblot
# [2] = biological target: T2, Pcs60p nonapeptide, FITC-… (S. cerevisiae); assay: fluorescence polarisation; fluorescence anisotropy; 10 nM FITC-labelled peptide, serial dilutions of Pex5p variant 1.5 nM to 6.6 µM; 50 mM HEPES pH 7.5, 150 mM NaCl; one-site binding-saturation fit; both purified
# [3] = biological target: T3, TPA-tagged Pex5p wildtype (Pex5p^TPA) (S. cerevisiae); assay: co-IP; TPA-tagged Pex5p variants purified on IgG Sepharose from crude membrane fractions solubilized with 1% digitonin, eluted with TEV protease; immunoblot for Pex5p, Pex14p, Pex17p, Pex13p
# [4] = biological target: T4, TPA-tagged Pex5p-S507/523D (Pex5p^2D) (S. cerevisiae); assay: as above
# [5] = biological target: T5, TPA-tagged Pex5p-S507/523A (Pex5p^2A) (S. cerevisiae); assay: as above
Binder,binding [1],binding [2],binding [3],binding [4],binding [5]
B1,binds,–,–,–,–
B2,–,binds weakly,–,–,–
B3,–,–,binds,binds,binds
B4,–,–,binds,binds,binds
B5,–,–,binds,binds,binds
B6,binds,–,–,–,–
B7,binds,–,–,–,–
